# Record: PubChem BioAssay AID1259308 (NCATS, 2017)
# Aim: 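Candidate targets for better recombinant protein yield in mammalian cells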 (primary screen)
# Cells: human HEK293 embryonic kidney cells stably expressing firefly luciferase (HEK-CMV-Luc2-Hygro)
# Reagent: single siRNA against human genes, 0.8 pmol siRNA per well
# Duration: 72 h
# Measured: 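Luciferase light (ONE-Glo) measured on one replicate plate set and viability (CellTiter-Glo) on the other, scaled to a negative control siRNA, with robust z-scores and luciferase per cell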
# Direction: total luciferase, z-score and total luciferase, % of control: higher = more reporter protein produced; luciferase per cell, z-score: higher = more reporter output per viable cell; viable cells, % of control: higher = more viable cells
# Active means: 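Active when the median/MAD z-score for overall luciferase is greater than 3; a gene was taken forward for validation with new siRNAs if at least two of its three siRNAs passed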
# Calls: active = raised luciferase; inactive = no rise
# The deposit covers about 59,000 reagents; below is a random part of them. In the full data, about 1,510 (2.6%) are marked active. 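Calls use total luciferase alone and ignore viability, so some active siRNAs may act by altering cell number.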 Reagents against one gene are numbered here. Reagent sequences are not shown.
target,siRNA no.,"total luciferase, z-score","total luciferase, % of control","luciferase per cell, z-score","viable cells, % of control",activity call
WDSUB1,1,1.04,103,2.01,67.5,inactive
WDSUB1,2,-0.391,74.1,-0.107,85.2,inactive
WDSUB1,3,-0.13,79.3,-0.542,102,inactive
CP,1,-0.425,73.4,1.12,61.1,inactive
CP,2,0.902,99.8,0.425,99.8,inactive
CP,3,-0.786,66.2,-1.96,124,inactive
CGAS,1,1.35,109,0.806,98.2,inactive
CGAS,2,-0.0794,80.3,0.425,80.2,inactive
CGAS,3,-0.293,76.1,-0.893,108,inactive
SLC27A1,1,1.17,105,1.03,89.7,inactive
SLC27A1,2,1.19,106,0.488,104,inactive
SLC27A1,3,0.533,92.5,0.203,98,inactive
ZNF568,1,-1.32,55.6,-1.62,95.2,inactive
ZNF568,2,0.116,84.2,-0.0978,96.5,inactive
ZNF568,3,1.42,110,1.41,84.9,inactive
CNGA3,1,-0.637,69.2,0.358,70.4,inactive
CNGA3,2,-2.21,37.9,-2.71,86.5,inactive
CNGA3,3,-1.31,55.9,-1.94,104,inactive
MOB1B,1,-0.316,75.6,0.121,81.8,inactive
MOB1B,2,-0.18,78.3,-0.376,96.6,inactive
MOB1B,3,1.1,104,0.816,93.6,inactive
DEFB106A,1,-0.851,65,-0.863,91.1,inactive
DEFB106A,2,-2.94,23.4,-2.79,54.5,inactive
DEFB106A,3,-0.519,71.6,0.12,77.5,inactive
SLC35F4,1,-1.35,55,0.297,56.9,inactive
SLC35F4,2,0.43,90.4,0.302,93.3,inactive
SLC35F4,3,-0.111,79.7,-0.123,92,inactive
MAD2L2,1,0.169,85.2,0.363,86.6,inactive
MAD2L2,2,2.04,122,1.67,88,inactive
MAD2L2,3,2.3,128,1.14,106,inactive

Part of the list above, set out differently:
| target | siRNA no. | total luciferase, z-score | total luciferase, % of control | luciferase per cell, z-score | viable cells, % of control | activity call |
| --- | --- | --- | --- | --- | --- | --- |
| ZNF568 | 1 | -1.32 | 55.6 | -1.62 | 95.2 | inactive |
| ZNF568 | 2 | 0.116 | 84.2 | -0.0978 | 96.5 | inactive |
| ZNF568 | 3 | 1.42 | 110 | 1.41 | 84.9 | inactive |
| CNGA3 | 1 | -0.637 | 69.2 | 0.358 | 70.4 | inactive |
| CNGA3 | 2 | -2.21 | 37.9 | -2.71 | 86.5 | inactive |
| CNGA3 | 3 | -1.31 | 55.9 | -1.94 | 104 | inactive |

The results go on.
target,siRNA no.,"total luciferase, z-score","total luciferase, % of control","luciferase per cell, z-score","viable cells, % of control",activity call
VWF,1,-0.346,75,-0.0518,85,inactive
VWF,2,0.456,91,0.242,95.4,inactive
VWF,3,-0.185,78.2,-0.0203,87.9,inactive
BEST4,1,1.37,109,0.968,94.4,inactive
BEST4,2,1.24,106,1.14,88.2,inactive
BEST4,3,4.16,165,2.76,88.9,active
CSN2,1,2.16,125,2.45,73.2,inactive
CSN2,2,-1.5,52,-0.954,74.6,inactive
CSN2,3,0.0342,82.6,0.151,88.7,inactive
PGAP4,1,0.838,98.6,0.619,93.6,inactive
PGAP4,2,-0.39,74.1,-0.403,92.1,inactive
PGAP4,3,0.195,85.8,1.25,68.9,inactive
MROH8,1,0.555,92.9,0.127,100,inactive
MROH8,2,0.603,93.9,0.191,99.8,inactive
MROH8,3,-2.07,40.7,-0.315,49.4,inactive
AADACL3,1,-0.651,68.9,0.795,62.5,inactive
AADACL3,2,4.67,175,4.21,64.4,active
AADACL3,3,2.52,132,2.48,76.9,inactive
MCU,1,0.425,90.3,0.397,90.9,inactive
MCU,2,0.862,99,0.309,102,inactive
MCU,3,-0.337,75.2,0.41,75.4,inactive
ARK2C,1,-0.097,80,2.14,50.9,inactive
ARK2C,2,0.119,84.3,-0.133,97.5,inactive
ARK2C,3,0.916,100,0.273,104,inactive
TMEM244,1,0.164,85.2,0.204,90.2,inactive
TMEM244,2,-0.232,77.3,0.599,73.7,inactive
TMEM244,3,0.354,88.9,0.0689,97.6,inactive
